Results are given in words; binding and its absence hold for the method and conditions named. Binding seen in cells or lysates may run through a third protein. Some entries that bind do so weakly or less than the wild type. Where a sequence is shown, tags or fusion partners need not be part of it. Blank lines part the entries; values can stand above or below the molecule they belong to.
Experiments:
GST-CRP2 (rat) = biological target: T1, GST-CRP2 (rat) (UniProt Q62908); assay: GST-CRP2 pull-down of 35S-labelled in vitro translated protein, autoradiography
T1 sequence (looked up): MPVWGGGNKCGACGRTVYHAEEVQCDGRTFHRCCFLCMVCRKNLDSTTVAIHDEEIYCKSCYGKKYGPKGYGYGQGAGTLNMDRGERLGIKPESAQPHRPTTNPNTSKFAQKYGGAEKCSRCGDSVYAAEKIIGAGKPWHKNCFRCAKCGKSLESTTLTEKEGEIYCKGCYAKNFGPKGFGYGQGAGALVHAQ

By UniProt entry, the sequences of proteins in these tests, tags left out. Where a name states a change or a piece, a line headed by the entry shows the natural chain unless it says otherwise.
UniProt Q61169: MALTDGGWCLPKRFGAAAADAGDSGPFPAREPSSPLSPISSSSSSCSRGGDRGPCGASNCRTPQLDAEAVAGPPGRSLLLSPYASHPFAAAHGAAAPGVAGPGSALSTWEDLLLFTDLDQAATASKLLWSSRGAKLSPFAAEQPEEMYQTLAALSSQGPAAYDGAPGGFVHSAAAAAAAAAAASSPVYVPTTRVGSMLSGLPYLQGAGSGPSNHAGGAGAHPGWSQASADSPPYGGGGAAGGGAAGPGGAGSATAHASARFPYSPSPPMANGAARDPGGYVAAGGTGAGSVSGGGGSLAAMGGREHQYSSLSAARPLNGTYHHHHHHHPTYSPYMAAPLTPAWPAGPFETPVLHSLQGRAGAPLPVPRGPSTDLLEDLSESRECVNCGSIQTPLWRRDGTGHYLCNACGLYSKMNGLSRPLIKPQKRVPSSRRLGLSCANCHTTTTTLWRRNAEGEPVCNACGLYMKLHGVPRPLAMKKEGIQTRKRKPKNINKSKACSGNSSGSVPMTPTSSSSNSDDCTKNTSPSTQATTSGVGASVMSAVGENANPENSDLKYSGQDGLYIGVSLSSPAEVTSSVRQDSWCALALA
UniProt Q08369: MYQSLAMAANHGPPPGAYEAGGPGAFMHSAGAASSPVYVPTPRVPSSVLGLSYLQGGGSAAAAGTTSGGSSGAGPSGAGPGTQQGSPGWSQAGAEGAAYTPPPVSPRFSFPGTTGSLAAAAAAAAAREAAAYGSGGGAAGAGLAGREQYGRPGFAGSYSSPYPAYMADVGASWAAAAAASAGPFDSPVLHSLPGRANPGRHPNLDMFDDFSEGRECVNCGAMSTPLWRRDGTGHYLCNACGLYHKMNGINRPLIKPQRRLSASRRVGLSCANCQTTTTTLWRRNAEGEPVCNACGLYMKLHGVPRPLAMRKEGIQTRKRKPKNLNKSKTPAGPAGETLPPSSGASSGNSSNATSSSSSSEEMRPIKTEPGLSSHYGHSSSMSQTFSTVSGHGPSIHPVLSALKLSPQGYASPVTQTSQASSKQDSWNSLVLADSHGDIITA

GST-SRF = biological target: T2, GST-SRF (human, UniProt P11831 1-508); assay: GST-SRF pull-down of 35S-labelled in vitro translated protein, autoradiography
T2 construct: also called GST-SRF fusion protein; not shown: glutathione S-transferase encoded by vector pGEX-2T
T2 sequence (looked up): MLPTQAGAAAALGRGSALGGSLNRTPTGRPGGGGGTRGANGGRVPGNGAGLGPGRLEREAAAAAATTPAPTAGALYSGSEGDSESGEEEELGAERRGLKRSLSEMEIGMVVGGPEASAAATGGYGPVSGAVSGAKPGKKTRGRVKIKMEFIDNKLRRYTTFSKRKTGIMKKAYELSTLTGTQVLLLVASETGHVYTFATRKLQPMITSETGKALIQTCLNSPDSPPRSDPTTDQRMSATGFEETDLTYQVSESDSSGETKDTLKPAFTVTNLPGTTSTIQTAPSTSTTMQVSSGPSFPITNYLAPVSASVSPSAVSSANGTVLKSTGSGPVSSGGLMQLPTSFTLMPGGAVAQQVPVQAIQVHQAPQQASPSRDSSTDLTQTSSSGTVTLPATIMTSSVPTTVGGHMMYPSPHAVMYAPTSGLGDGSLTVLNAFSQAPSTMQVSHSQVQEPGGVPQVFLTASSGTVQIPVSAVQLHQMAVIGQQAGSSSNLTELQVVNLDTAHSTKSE

[1] = biological target: endogenous GATA6 (αMHC-CRP2 mouse heart nuclear extract) (mouse) (UniProt Q61169); assay: co-IP from nuclear extracts of αMHC-CRP2 transgenic mouse hearts, immunoblot

Molecule: Myc-tag full length mouse GATA4 (1-440) (from UniProt Q08369 1-440)
binding (GST-CRP2 (rat)): binds

B2: FLAG-tagged rat CRP2 (αMHC-CRP2 transgene) (other, UniProt Q62908 1-193, looked up, not shown: small tags and cut ends)
chain: T1 sequence (looked up)
notes: Expressed in cardiomyocytes of transgenic mice and assayed in nuclear and cytoplasmic heart extracts; also called FLAG-CRP2; FLAG-tagged CRP2
binding [1]: binds

The next lines start with the values.

binding (GST-CRP2 (rat)): binds
Molecule: G4ZF1+ZF2 (from UniProt Q08369 188-304)

binding (GST-SRF): binds
B1: V5-tag full length CRP2 (1-193) (protein, rat, UniProt Q62908 1-193, looked up, not shown: small tags and cut ends)
chain: T1 sequence (looked up)

Source: US20050037961A1 (BAYLOR COLLEGE OF MEDICINE, published 2005)
